By UniProt entry, the sequences of proteins in these tests, tags left out. Where a name states a change or a piece, a line headed by the entry shows the natural chain unless it says otherwise.
UniProt Q9Y603: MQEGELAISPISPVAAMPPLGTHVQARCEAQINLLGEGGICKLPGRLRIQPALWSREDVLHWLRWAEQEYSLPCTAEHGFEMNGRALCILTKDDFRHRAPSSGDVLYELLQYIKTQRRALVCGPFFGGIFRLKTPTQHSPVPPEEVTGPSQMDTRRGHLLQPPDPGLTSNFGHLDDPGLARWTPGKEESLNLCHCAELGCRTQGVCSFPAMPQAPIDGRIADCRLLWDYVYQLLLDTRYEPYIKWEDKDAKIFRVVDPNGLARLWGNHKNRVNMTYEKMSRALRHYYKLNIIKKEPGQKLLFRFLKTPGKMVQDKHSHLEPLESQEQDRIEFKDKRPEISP
UniProt P41212: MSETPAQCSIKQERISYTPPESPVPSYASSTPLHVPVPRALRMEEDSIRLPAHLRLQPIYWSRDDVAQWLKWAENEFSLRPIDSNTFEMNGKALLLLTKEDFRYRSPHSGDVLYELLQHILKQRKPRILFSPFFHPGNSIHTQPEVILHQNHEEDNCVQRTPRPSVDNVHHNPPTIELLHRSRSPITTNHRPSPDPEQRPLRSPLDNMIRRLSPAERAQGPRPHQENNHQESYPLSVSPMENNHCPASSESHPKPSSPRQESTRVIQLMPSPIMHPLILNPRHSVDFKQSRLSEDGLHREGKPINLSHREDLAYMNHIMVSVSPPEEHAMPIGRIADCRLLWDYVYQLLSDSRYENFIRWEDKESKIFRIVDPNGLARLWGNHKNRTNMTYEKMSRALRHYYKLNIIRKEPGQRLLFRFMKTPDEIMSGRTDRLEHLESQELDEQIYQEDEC

This is a selection; strong and weak results do not stand in their true shares. At the low end of the ranking the order means little.
What follows are sequences tested against T1, ELF3 (UniProt P78545) (assay: DAPPL (digital affinity profiling via proximity ligation, sequencing)). Details: 10 mM Tris-HCl pH 7.5, 50 mM NaCl, 1 mM DTT, 4% glycerol, room temperature, 30 min; GST-TFs on glutathione beads, 16-mer random dsDNA library, 0.1% …; high values mean tight binding; double strand, one strand shown; scale: fold enrichment (6-mer frequency, TF over GST control).
T1 sequence: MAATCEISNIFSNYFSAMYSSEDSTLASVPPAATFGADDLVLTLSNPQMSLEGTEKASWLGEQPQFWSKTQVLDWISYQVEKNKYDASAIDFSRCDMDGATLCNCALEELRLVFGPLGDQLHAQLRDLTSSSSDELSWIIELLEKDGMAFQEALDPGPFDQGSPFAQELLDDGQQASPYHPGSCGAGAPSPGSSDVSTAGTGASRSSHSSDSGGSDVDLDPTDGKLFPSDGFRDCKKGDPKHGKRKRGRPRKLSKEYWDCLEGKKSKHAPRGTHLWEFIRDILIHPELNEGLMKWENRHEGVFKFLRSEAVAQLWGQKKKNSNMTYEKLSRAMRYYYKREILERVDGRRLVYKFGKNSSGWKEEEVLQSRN
With AGGCGT the binding signal was 0.523. With GAGCGT the binding signal was 0.389. With AGCCTG the binding signal was 0.823. GACGTG showed a binding signal of 0.314. GGTGAA showed a binding signal of 0.798. For CAGTAA, the binding signal was 0.789. In the case of AGAGAC, the binding signal was 0.472. Work on AACCAG yielded a binding signal of 0.854. In the case of CAAGAG, the binding signal was 0.932. Work on TCGGTG yielded a binding signal of 0.484. With GCTGGA the binding signal was 0.701. With GAAGGC the binding signal was 0.873. In the case of TGTGGG, the binding signal was 0.826. With GGAGGC the binding signal was 0.245. With ACAGCG the binding signal was 0.816. Sequence AGGGCC has a binding signal of 0.805. GAGTGA gave a binding signal of 0.35. In the case of AAGGAG, the binding signal was 0.321. GCGTAA gave a binding signal of 0.879. In the case of CAATCG, the binding signal was 0.824. TCGTGA was tested, and the binding signal was 0.394. CAGAGA gave a binding signal of 0.579. Work on ATCGGG yielded a binding signal of 0.467. CGAGGA gave a binding signal of 0.54. With CACGAG the binding signal was 0.784. For ACCGTA, the binding signal was 0.891. ACGTGG was tested, and the binding signal was 0.588. GTGCGG showed a binding signal of 0.785. Sequence AGACCG has a binding signal of 0.437. CTGTCG showed a binding signal of 0.578. Work on GGAAAG yielded a binding signal of 0.95. For GGCCGC, the binding signal was 0.815. CAGCGG was tested, and the binding signal was 0.478. In the case of GAGTAA, the binding signal was 0.505. With CGGGAG the binding signal was 0.191. Sequence ATGAGT has a binding signal of 0.666. Sequence GGACCA has a binding signal of 0.791. Sequence GACAGG has a binding signal of 0.592. Sequence AGGAGA has a binding signal of 0.214.

What follows are sequences tested against ETV7 (UniProt Q9Y603) in the same assay as above. Details: 10 mM Tris-HCl pH 7.5, 50 mM NaCl, 1 mM DTT, 4% glycerol, room temperature, 30 min; GST-TFs on glutathione beads, 16-mer random dsDNA library, 0.1% …; high values mean tight binding; double strand, one strand shown; scale: fold enrichment (6-mer frequency, TF over GST control).
Sequence AGGCGT has a binding signal of 0.509. GAGCGT showed a binding signal of 0.423. AGCCTG showed a binding signal of 0.892. With GACGTG the binding signal was 0.339. In the case of GGTGAA, the binding signal was 0.83. For CAGTAA, the binding signal was 0.79. AGAGAC gave a binding signal of 0.558. With AACCAG the binding signal was 0.871. CAAGAG showed a binding signal of 0.776. Sequence TCGGTG has a binding signal of 0.566. Sequence GCTGGA has a binding signal of 0.775. In the case of GAAGGC, the binding signal was 0.965. For TGTGGG, the binding signal was 0.843. GGAGGC gave a binding signal of 0.307. Sequence ACAGCG has a binding signal of 0.798. AGGGCC showed a binding signal of 0.837. GAGTGA was tested, and the binding signal was 0.458. With AAGGAG the binding signal was 0.396. For GCGTAA, the binding signal was 0.898. CAATCG gave a binding signal of 0.885. For TCGTGA, the binding signal was 0.338. Work on CAGAGA yielded a binding signal of 0.679. In the case of ATCGGG, the binding signal was 0.517. Work on CGAGGA yielded a binding signal of 0.606. In the case of CACGAG, the binding signal was 0.872. ACCGTA showed a binding signal of 0.816. In the case of ACGTGG, the binding signal was 0.587. With GTGCGG the binding signal was 0.632. For AGACCG, the binding signal was 0.466. For CTGTCG, the binding signal was 0.662. Work on GGAAAG yielded a binding signal of 1.06. GGCCGC showed a binding signal of 0.739. CAGCGG was tested, and the binding signal was 0.486. GAGTAA gave a binding signal of 0.61. CGGGAG was tested, and the binding signal was 0.262. ATGAGT gave a binding signal of 0.773. Work on GGACCA yielded a binding signal of 0.684. GACAGG showed a binding signal of 0.674. Work on AGGAGA yielded a binding signal of 0.266.

These sequences were tested against ETV6 (UniProt P41212) in the same assay as above. Details: 10 mM Tris-HCl pH 7.5, 50 mM NaCl, 1 mM DTT, 4% glycerol, room temperature, 30 min; GST-TFs on glutathione beads, 16-mer random dsDNA library, 0.1% …; high values mean tight binding; double strand, one strand shown; scale: fold enrichment (6-mer frequency, TF over GST control).
AGGCGT was tested, and the binding signal was 0.475. GAGCGT was tested, and the binding signal was 0.373. AGCCTG gave a binding signal of 0.77. Work on GACGTG yielded a binding signal of 0.341. GGTGAA gave a binding signal of 0.727. CAGTAA gave a binding signal of 0.744. AGAGAC showed a binding signal of 0.505. With AACCAG the binding signal was 0.736. Work on CAAGAG yielded a binding signal of 0.746. Work on TCGGTG yielded a binding signal of 0.574. GCTGGA showed a binding signal of 0.807. With GAAGGC the binding signal was 0.907. Work on TGTGGG yielded a binding signal of 0.778. In the case of GGAGGC, the binding signal was 0.244. ACAGCG showed a binding signal of 0.779. AGGGCC gave a binding signal of 0.899. GAGTGA was tested, and the binding signal was 0.409. Work on AAGGAG yielded a binding signal of 0.374. GCGTAA gave a binding signal of 0.872. CAATCG was tested, and the binding signal was 0.903. For TCGTGA, the binding signal was 0.309. In the case of CAGAGA, the binding signal was 0.608. For ATCGGG, the binding signal was 0.416. Sequence CGAGGA has a binding signal of 0.705. With CACGAG the binding signal was 0.865. For ACCGTA, the binding signal was 0.845. Work on ACGTGG yielded a binding signal of 0.604. GTGCGG gave a binding signal of 0.706. In the case of AGACCG, the binding signal was 0.483. Work on CTGTCG yielded a binding signal of 0.585. For GGAAAG, the binding signal was 1.06. GGCCGC gave a binding signal of 0.785. CAGCGG gave a binding signal of 0.486. GAGTAA was tested, and the binding signal was 0.55. CGGGAG showed a binding signal of 0.197. For ATGAGT, the binding signal was 0.733. With GGACCA the binding signal was 0.691. GACAGG gave a binding signal of 0.58. With AGGAGA the binding signal was 0.214.

Source: publication PMC7862700
